## Screening data, single-dose tests

Data taken from ChEMBL document CHEMBL3988442, “University of Dundee, Small-Polar-MMV Screening Library” (2021).

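Growth of Mycobacterium tuberculosis over 3 days (7H9 medium with glucose and tyloxapol); the read-out is not stated. Concentration: 500 µM. The record gives no direction; compounds that gave an IC50 in retests scored well above the rest, so higher reads as more growth inhibition. About 18,000 compounds were tested under these conditions; 7.9% (about 1,400) showed 50% or more at least once.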

Values are the deposited “Percent Effect”, in %. The controls that fix the scale are not given in the record; negative values are as filed. Compounds were drawn at random from those tested, without regard to their results.

{"structure": "NC1CCN(C(=O)C2CCCC2)C1", "stereo": "stereo not drawn", "Percent Effect": 19.24}
{"structure": "O=C(CO)N1C[C@@H](CN2CCCCCC2)[C@@H](CO)C1", "Percent Effect": -48.51}
{"structure": "NC(=O)CN1CCOC(c2ccc(Cl)s2)C1", "stereo": "stereo not drawn", "Percent Effect": 40.96}
{"structure": "NC(CCO)Cc1ccccc1", "stereo": "stereo not drawn", "Percent Effect": 20.43}
{"structure": "CCC(C(=O)NCc1nnc2n1CCC2)n1cccn1", "stereo": "stereo not drawn", "Percent Effect": -4.186}
{"structure": "COc1cc(-c2nnn(C)n2)ccc1O", "Percent Effect": 24.06}
{"structure": "CNC(=O)NC(=O)CSc1nnc(-c2ccccc2)o1", "Percent Effect": -5.164}
{"structure": "OCCOCCN1CCC(=Cc2ccccc2)CC1", "Percent Effect": 65.48}
{"structure": "CCC(C)(N)c1nc(COC)cc(=O)[nH]1", "stereo": "stereo not drawn", "Percent Effect": 6.551}
{"structure": "Cc1nccn1CCCN1CCOCS1(=O)=O", "Percent Effect": 7.239}
{"structure": "NC(CCO)C1CCCCC1", "stereo": "stereo not drawn", "Percent Effect": -6.444}
{"structure": "O=C(c1ccsc1)N1CCC2(CC1)OCCO2", "Percent Effect": 12.26}
{"structure": "Cc1ccc(S(=O)(=O)N2CCOCC2)c2cccnc12", "Percent Effect": 0.5797}
{"structure": "CCNC(=O)Cc1nnc(-c2cccc(F)c2)o1", "Percent Effect": 21.24}
{"structure": "NC(=O)CN(CCc1ccncc1)C1CCCC1", "Percent Effect": 2.881}
{"structure": "COc1ccc(N2CCN(S(=O)(=O)CCN)CC2)cc1", "Percent Effect": -1.94}
{"structure": "COC(C)(C)c1nsc(N)n1", "Percent Effect": 7.525}
{"structure": "CCc1ccccc1NC(=O)CCN", "Percent Effect": 9.14}
{"structure": "N#CC(C#N)c1ccccn1", "Percent Effect": 9.509}
{"structure": "CCCC(=O)Nc1cccc(CCC(=O)N(C)C)c1", "Percent Effect": 5.383}
{"structure": "COc1ccc(NC(=O)N2CCCC2)c(C)n1", "Percent Effect": -4.274}
{"structure": "CC(C(=O)NCc1ncccc1F)N1CCSCC1", "stereo": "stereo not drawn", "Percent Effect": 12.78}
{"structure": "CN(CCc1ccncc1)C(=O)Cc1cccnc1", "Percent Effect": -3.489}
{"structure": "Cc1cnn(CC2CCNCC2)c1", "Percent Effect": -1.298}
{"structure": "CC(=O)NC(C)C(=O)N1CCCC2(CC2)C1", "stereo": "stereo not drawn", "Percent Effect": 2.702}
{"structure": "CC(C)(C)C(=O)Nc1nccs1", "Percent Effect": 16.73}
{"structure": "CCC(CC)C(=O)N1CCC(=O)Nc2ccccc21", "Percent Effect": 23.45}
{"structure": "CN(Cc1ccccc1)C1(CN)CCC1", "Percent Effect": 2.711}
{"structure": "CNC(=O)CCCNCc1c(C(C)C)nn(C)c1OC", "Percent Effect": 8.228}
{"structure": "COc1cc(I)c(C(=O)N2CCC2)cc1OC", "Percent Effect": 17.72}
{"structure": "COC(=O)c1cnn(-c2ccccc2)n1", "Percent Effect": -5.975}
{"structure": "Cn1ccc(NC(=O)CN2CCS(=O)(=O)CC2)n1", "Percent Effect": 9.975}
{"structure": "CCCNC(=O)N1CCC2(CC1)OCCO2", "Percent Effect": 27.87}
{"structure": "N#Cc1c(F)cccc1NCCN", "Percent Effect": 13.02}
{"structure": "COc1ccc2c(c1)NCC(C)O2", "stereo": "stereo not drawn", "Percent Effect": 66.67}
{"structure": "Cc1nnc(SCCCN)s1", "Percent Effect": 7.974}
{"structure": "CC(=O)N1CCC(NC(=O)c2cc(C)c(C)s2)CC1", "Percent Effect": -8.279}
{"structure": "CC(C)N1CCN(Cc2ccc(N)nc2)CC1", "Percent Effect": 6.853}
{"structure": "CC(=O)c1cc(Br)cc(F)c1OCC(N)=O", "Percent Effect": 17.57}
{"structure": "CCc1ccccc1NC(=O)CN(C)C(=O)C1CC1", "Percent Effect": 11.48}
{"structure": "CN(CCCO)C(=O)c1ccc(Cl)cc1F", "Percent Effect": 18.55}
{"structure": "CN1CCC(CNC(=O)CNS(=O)(=O)c2cccs2)C1", "stereo": "stereo not drawn", "Percent Effect": 18.44}
{"structure": "Cn1ccnc1CSc1ncnn1C", "Percent Effect": 2.294}
{"structure": "CCn1nc(C)cc1C(=O)NCCCc1cccnc1", "Percent Effect": 27.86}
{"structure": "CCN1CCN(CC(=O)NC(C)(C)C)CC1", "Percent Effect": -14.64}
{"structure": "CCN1CCN(C(=O)Cc2ccc(OC)cc2)CC1", "Percent Effect": 22.06}
{"structure": "CCn1cc(NC(=O)c2ccccc2)cn1", "Percent Effect": 31.35}
{"structure": "CC(c1ccccn1)N(C)S(C)(=O)=O", "stereo": "stereo not drawn", "Percent Effect": 7.752}

Once more, the final 6:

- Cn1ccnc1CSc1ncnn1C : 2.294%
- CCn1nc(C)cc1C(=O)NCCCc1cccnc1 : 27.86%
- CCN1CCN(CC(=O)NC(C)(C)C)CC1 : -14.64%
- CCN1CCN(C(=O)Cc2ccc(OC)cc2)CC1 : 22.06%
- CCn1cc(NC(=O)c2ccccc2)cn1 : 31.35%
- CC(c1ccccn1)N(C)S(C)(=O)=O (stereo not drawn) : 7.752%